Some of the results follow.
Compound: Cc1cc(ccc1-c1ccccc1)C(=O)N1CCCN(CC1)C(=O)CCl [compound 10]
Test: probe-labelled cysteine peptide fold change vs DMSO (competition) (log2 fold change); higher = less target engagement (more negative = stronger competition)
Settings: THP-1, incubation time: 4 h
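Further: competitive profiling in live THP-1 cells: cysteine peptides tagged with an iodoacetamide desthiobiotin (IA-DTB) probe, intensity after compound treatment relative to DMSO-treated cells.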

Sequences of proteins named here, by UniProt entry; tags and fusion partners are left off. A change or cut given only in a name is not applied to a line headed by its entry.
UniProt Q8NBL1: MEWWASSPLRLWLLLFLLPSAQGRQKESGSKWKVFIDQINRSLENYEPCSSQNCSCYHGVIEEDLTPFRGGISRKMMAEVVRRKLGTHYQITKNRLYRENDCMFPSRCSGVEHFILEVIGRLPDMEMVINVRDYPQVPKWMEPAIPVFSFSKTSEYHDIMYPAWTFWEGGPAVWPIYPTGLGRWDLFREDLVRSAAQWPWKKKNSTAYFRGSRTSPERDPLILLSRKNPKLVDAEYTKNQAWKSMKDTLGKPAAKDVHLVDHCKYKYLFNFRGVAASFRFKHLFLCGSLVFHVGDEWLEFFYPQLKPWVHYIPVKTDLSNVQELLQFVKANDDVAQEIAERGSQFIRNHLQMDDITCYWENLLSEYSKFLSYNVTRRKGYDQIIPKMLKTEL
UniProt Q06203, whole entry, looked up: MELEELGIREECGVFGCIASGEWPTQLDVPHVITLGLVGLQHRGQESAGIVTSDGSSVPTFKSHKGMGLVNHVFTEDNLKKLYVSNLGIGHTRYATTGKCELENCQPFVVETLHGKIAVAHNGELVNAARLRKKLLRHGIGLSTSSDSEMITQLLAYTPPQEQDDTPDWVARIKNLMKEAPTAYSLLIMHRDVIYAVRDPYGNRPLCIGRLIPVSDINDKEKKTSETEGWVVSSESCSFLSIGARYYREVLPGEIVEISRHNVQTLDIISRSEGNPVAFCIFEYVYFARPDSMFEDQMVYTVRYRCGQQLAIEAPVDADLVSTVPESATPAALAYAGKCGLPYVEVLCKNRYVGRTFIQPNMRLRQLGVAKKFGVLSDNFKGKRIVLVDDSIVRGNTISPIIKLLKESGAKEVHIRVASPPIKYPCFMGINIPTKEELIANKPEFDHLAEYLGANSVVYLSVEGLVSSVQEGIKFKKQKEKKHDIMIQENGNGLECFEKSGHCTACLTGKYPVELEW
UniProt P28340: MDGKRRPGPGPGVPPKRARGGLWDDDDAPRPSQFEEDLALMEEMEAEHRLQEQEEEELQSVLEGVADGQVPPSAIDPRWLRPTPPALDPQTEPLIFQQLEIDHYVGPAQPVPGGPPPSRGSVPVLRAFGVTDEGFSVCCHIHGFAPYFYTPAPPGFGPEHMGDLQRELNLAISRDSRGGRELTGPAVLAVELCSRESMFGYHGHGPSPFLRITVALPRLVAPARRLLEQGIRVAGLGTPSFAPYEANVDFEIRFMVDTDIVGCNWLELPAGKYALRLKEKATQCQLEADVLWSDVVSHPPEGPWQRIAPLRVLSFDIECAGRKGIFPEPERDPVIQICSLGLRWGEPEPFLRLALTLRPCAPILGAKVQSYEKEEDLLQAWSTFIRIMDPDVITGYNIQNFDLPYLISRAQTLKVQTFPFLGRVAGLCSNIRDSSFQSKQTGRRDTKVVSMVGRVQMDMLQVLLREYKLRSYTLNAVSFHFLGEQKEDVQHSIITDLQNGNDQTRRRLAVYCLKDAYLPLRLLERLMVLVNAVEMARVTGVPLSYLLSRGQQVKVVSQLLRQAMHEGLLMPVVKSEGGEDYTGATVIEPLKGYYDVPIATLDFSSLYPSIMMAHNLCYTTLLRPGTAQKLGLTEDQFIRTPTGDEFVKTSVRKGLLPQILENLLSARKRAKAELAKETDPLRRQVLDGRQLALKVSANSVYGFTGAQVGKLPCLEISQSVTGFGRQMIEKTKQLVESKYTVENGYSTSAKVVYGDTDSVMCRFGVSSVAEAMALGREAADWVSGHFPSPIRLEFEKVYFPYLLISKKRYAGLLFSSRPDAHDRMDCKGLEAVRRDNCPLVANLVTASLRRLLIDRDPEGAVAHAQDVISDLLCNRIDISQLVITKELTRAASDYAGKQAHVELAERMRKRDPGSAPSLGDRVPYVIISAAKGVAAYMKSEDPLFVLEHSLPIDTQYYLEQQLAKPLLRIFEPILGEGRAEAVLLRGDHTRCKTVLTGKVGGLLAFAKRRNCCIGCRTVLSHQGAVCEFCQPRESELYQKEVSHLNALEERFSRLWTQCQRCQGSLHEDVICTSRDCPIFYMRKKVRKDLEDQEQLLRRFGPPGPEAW
UniProt Q08752, whole entry, looked up: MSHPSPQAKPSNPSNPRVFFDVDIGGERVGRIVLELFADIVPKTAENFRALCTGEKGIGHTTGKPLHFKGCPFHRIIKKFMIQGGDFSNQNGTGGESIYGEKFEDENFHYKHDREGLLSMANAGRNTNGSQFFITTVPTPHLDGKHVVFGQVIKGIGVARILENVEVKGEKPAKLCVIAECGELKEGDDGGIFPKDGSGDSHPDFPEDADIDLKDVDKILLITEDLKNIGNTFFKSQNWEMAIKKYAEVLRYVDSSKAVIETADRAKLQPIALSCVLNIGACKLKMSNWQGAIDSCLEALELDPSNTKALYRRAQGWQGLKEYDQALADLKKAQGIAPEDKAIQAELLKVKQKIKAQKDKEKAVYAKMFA
UniProt P30405: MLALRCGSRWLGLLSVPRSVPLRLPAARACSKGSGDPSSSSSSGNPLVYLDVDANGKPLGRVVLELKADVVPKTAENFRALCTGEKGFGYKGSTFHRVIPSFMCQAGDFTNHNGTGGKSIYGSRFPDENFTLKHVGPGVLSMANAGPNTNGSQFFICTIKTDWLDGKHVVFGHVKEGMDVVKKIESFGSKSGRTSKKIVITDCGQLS
UniProt Q8WUA2: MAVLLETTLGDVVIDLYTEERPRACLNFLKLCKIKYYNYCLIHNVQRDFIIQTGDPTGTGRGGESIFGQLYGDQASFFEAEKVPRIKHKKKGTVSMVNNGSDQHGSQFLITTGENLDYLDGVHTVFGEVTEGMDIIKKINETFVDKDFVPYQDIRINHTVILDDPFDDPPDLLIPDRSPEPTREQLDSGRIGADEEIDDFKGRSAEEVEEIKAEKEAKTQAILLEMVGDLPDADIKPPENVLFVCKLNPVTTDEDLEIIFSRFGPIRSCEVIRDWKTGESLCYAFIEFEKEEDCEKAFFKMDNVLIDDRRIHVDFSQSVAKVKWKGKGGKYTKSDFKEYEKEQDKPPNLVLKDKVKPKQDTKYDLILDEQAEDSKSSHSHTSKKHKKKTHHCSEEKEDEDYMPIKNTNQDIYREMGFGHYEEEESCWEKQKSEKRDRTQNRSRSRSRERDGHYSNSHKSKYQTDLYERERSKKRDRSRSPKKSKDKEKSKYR
UniProt P09884: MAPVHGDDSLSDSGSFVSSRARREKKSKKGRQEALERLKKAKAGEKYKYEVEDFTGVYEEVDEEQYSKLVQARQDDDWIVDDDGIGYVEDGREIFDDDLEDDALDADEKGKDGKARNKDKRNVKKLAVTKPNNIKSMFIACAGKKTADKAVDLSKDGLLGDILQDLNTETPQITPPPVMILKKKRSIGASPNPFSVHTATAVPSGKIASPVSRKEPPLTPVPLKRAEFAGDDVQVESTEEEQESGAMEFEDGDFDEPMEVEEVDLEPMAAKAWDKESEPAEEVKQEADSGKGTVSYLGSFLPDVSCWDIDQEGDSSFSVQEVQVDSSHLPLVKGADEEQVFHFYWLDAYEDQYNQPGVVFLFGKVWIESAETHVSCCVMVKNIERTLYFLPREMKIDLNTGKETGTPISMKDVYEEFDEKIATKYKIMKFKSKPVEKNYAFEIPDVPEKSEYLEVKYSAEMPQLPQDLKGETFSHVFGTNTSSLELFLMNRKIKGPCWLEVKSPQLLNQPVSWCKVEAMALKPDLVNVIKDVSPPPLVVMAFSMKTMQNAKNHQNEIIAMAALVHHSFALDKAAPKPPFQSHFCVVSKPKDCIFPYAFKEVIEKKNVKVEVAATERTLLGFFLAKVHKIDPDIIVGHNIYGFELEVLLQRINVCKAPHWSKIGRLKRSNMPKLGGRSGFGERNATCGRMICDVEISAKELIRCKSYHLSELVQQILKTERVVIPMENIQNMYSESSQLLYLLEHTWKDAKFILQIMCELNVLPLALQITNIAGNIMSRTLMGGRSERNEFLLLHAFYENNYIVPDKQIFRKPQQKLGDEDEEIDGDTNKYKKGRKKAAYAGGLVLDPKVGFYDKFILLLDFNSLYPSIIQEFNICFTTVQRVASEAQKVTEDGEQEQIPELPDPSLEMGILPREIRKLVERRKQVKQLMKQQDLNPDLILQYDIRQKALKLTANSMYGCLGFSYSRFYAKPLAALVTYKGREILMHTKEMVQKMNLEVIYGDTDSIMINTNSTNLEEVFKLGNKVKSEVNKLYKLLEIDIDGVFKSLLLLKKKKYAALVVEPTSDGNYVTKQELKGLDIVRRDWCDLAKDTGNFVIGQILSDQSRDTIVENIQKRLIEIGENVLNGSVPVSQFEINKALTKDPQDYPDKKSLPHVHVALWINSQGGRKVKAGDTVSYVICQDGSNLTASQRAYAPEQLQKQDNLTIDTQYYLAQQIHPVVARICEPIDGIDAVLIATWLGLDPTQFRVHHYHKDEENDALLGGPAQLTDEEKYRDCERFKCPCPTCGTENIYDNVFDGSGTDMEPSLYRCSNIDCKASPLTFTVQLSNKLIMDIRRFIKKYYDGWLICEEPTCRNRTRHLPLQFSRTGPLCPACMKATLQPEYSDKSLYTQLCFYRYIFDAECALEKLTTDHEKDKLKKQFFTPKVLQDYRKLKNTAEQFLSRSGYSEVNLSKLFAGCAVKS
UniProt Q99575: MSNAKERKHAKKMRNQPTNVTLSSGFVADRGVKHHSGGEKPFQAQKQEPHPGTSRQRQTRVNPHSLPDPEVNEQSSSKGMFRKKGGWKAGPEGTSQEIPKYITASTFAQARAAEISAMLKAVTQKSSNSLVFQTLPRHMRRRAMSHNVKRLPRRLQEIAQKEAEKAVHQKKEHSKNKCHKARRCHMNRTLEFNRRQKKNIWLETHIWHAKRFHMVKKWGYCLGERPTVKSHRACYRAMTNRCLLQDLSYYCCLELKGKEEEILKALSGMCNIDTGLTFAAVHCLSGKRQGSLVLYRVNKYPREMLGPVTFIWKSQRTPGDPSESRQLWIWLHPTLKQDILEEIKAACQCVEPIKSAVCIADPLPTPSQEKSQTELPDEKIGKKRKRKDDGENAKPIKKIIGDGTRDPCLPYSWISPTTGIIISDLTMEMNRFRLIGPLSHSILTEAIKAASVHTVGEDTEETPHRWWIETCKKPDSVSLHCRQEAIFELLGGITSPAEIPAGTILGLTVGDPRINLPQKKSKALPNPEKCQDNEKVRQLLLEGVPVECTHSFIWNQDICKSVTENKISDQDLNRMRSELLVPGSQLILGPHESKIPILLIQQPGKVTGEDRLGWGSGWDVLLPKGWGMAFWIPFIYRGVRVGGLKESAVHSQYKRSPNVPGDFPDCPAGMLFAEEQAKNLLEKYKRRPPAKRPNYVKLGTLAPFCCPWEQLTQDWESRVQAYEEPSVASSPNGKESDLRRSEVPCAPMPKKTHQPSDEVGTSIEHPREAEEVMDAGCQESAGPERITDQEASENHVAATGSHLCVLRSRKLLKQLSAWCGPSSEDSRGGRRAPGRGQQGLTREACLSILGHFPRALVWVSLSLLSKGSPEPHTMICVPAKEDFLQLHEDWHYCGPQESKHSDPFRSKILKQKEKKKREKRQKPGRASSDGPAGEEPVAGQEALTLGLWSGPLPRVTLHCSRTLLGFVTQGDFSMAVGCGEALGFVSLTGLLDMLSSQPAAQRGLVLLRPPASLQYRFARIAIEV

| Target | probe-labelled cysteine peptide fold change (10 µM) | probe-labelled cysteine peptide fold change (50 µM) |
| --- | --- | --- |
| POGLUT1_Q8NBL1_357_NHLQMDDITCYWENLLSEYSK (UniProt Q8NBL1) | -0.0315 | 0.0694 |
| POFUT1_Q9H488_283_STAAPLTMTMCLPDLK (UniProt Q9H488) | -0.0164 | -0.0201 |
| PPAT_Q06203_496_HDIMIQENGNGLECFEK (UniProt Q06203) | -0.381 | 0.0276 |
| POLD1_P28340_1058_LWTQCQR (UniProt P28340) | 0.324 | 0.509 |
| PPID_Q08752_181_LCVIAECGELK (UniProt Q08752) | -0.357 | -0.1 |
| PPIF_P30405_203_IVITDCGQLS (UniProt P30405) | -0.136 | 0.00957 |
| POLD1_P28340_1026_TVLSHQGAVCEFCQPR (UniProt P28340) | -0.0141 | -0.243 |
| POLR2A_P24928_602_QIFSLIIPGHINCIR (UniProt P24928) | -0.259 | -0.0818 |
| POLR2I_P36954_52_NCDYQQEADNSCIYVNK (UniProt P36954) | -0.00555 | -0.256 |
| PPIL4_Q8WUA2_245_TQAILLEMVGDLPDADIKPPENVLFVCK (UniProt Q8WUA2) | 0.611 | 0.292 |
| POLA1_P09884_584_AAPKPPFQSHFCVVSK (UniProt P09884) | 0.176 | 0.281 |
| PPAT_Q06203_503_SGHCTACLTGK (UniProt Q06203) | 0.12 | -0.199 |
| POP1_Q99575_252_CLLQDLSYYCCLELK (UniProt Q99575) | 0.19 | 0.163 |
| POLB_P06746_178_KVDSEYIATVCGSFR (UniProt P06746) | -0.0366 | 0.166 |

Looked up one by one from the list above, two records:

| Target | probe-labelled cysteine peptide fold change (10 µM) | probe-labelled cysteine peptide fold change (50 µM) |
| --- | --- | --- |
| POFUT1_Q9H488_283_STAAPLTMTMCLPDLK (UniProt Q9H488) | -0.0164 | -0.0201 |
| POLD1_P28340_1026_TVLSHQGAVCEFCQPR (UniProt P28340) | -0.0141 | -0.243 |

Reference: the supplement of paper PMC12067093, “Discovery and optimisation of a covalent ligand for TRIM25 and its application to targeted protein ubiquitination” (Chemical Science, 2025)
